Results are given in words; binding and its absence hold for the method and conditions named. Binding seen in cells or lysates may run through a third protein. A yes stands for co-enrichment or nearness to the bait. Other partners may have been found.

Chains of the proteins cited; added tags and fusions are not shown.
UniProt P29597: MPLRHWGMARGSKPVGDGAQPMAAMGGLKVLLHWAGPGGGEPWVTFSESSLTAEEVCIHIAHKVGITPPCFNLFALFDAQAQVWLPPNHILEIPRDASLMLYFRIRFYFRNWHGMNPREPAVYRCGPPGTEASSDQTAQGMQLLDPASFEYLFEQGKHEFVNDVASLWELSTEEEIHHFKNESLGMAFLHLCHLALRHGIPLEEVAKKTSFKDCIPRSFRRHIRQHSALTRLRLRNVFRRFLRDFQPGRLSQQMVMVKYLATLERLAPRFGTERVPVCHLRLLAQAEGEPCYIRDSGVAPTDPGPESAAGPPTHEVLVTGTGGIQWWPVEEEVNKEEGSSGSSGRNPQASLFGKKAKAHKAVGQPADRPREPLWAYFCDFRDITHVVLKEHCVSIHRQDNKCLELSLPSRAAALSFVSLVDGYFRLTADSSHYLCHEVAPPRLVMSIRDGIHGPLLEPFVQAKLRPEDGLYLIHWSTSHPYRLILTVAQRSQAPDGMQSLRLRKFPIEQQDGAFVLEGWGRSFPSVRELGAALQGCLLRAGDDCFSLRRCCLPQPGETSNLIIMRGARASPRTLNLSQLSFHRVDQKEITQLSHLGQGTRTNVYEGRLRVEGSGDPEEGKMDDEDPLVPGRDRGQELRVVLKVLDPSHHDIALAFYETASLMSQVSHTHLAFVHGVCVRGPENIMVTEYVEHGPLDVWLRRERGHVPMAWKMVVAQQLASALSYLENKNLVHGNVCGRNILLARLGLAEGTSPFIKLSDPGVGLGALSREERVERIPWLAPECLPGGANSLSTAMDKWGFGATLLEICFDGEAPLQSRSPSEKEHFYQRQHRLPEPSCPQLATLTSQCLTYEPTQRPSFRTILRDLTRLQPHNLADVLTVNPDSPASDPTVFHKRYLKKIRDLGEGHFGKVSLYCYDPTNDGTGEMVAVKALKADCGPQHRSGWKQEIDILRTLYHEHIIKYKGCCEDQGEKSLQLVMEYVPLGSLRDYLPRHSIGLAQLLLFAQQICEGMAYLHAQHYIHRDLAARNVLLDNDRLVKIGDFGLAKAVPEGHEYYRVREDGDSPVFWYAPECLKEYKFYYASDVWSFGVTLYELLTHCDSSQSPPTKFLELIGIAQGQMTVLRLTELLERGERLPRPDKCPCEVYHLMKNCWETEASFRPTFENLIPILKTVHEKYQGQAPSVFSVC

For the assay, the target named is TurboID-V5-TYK2 (human) (UniProt P29597). Kind of assay: proximity labelling.

With “TurboID-V5-STAT1 (from UniProt P42224-1 1-750)”, the binding entry is given as “binds”. Under “TurboID-V5-STAT2 (from UniProt P52630-3 1-851)” stands “binds”.

The values above are taken from article doi:10.1101/2023.10.04.560926.
